In paper PMC13379313:

Assays:
[1] = target: TrpR (UniProt P0A881); assay: SPR; settings: Trp; SPR: 1 mM SAM, 0.4 mM CoCl2 or 0.5 mM Trp, 100 ul/min, streptavidin CM5 chip; running buffer; recombinant protein; protein details: 8xHis, TEV-cleaved; label: 3' biotin on anchor strand S4 (SPR)
[2] = target: MetJ Q45K (UniProt P0A8U6); assay: SPR; settings: SAM; SPR: 1 mM SAM, 0.4 mM CoCl2 or 0.5 mM Trp, 100 ul/min, streptavidin CM5 chip; running buffer; recombinant protein; residues 2-105; protein details: 8xHis, TEV-cleaved; label: 3' biotin on anchor strand S4 (SPR)

Sequence	binding result [1]	binding result [2]
CCACGCCCTAAGGTATGCTAGTTTGAGACGTCTCAAAACAGGA / TCCTGTTTTGAGACGTCTCAAACTAGCAT [metJ single site (NR139 top/bottom)]	no binding	–
CCACGCCCTAAGGTGAGCATAGTGGTACTCGCTAGCGAGTACCTCTGACTTC / GAAGTCAGAGGTACTCGCTAGCGAGTACCACTATGCTC [trpR single site (NR206/NR207)]	–	no binding

A negative result means that nothing was seen under these conditions. At least one verdict was read from the data and is not stated in words by the source. For some assays here: The exact form of at least one protein or probe is not confirmed.
